According to publication PMC10163288:
The list shows a part of the results.

B1: il10ra_site1_sap_25_mot_HHH_b1_02492_000000051_0001_1_21_H_._HHH_b2_03821_0001_0000300023_0000001_0_0001 (protein)
chain: SSSSSEELYKLAEEALELLHQGDREEAERILEEAEEIAKERNDRVLLIVIRFLLRDVEASSSSSS
B2: il10ra_site1_sap_13_mot_HHH_b2_01447_af2_000000258_0001_1_20_H_._HHH_b1_00942_0001_0000300030_0000001_0_0001 (protein)
chain: SSSSDERYEEVKRLIEEIIRLVREGNPEEAEKLLERLEELAEQFNNPVLRFVVELLERAINSSSS
B3: il10ra_site1_sap_24_mot_HHH_b2_03631_af2_000000003_0001_42_56_H_._934a834d9b8b770824478def2ff2f329_0001_af2_0001_0000300012_0000001_0_0001 (protein)
chain: DEDRRRMELLEEAVSTSQEAARLLRRLLEAMFRGDPELAKELVEQLVELLGLPPEDEELLEESVR
B4: il10ra_site1_normal_mot_513c16ae44941e68898e0f7c259e5a28_0001_1_000000056_0001_35_50_H_._ems_p1-15H-GBL-16H-GABBL-16H_0062_0001_0001_0001_0001_0000400006_000000 … (protein)
chain: SSSSSSVEELAEEARELAKERGDEQAEDLVRFLERAMEQGILDPRVAKESLEALIRLLEESSSSS
B5: il10ra_site1_sap_35_mot_65b8060e20531850bca9f2e11f97d954_0001_af2_000000137_0001_17_31_H_._HHH_b2_07147_af2_0001_0000400021_0000002_0_0001 (protein)
chain: SSSSSAEEEIERLIREAEELLERGNPEEALRLVMEALRLAFQASNAELLRELWRLAKRIASSSSS
B6: il10ra_site1_sap_9_mot_HHH_b2_00943_af2_000000149_0001_1_17_H_._HHH_b1_00248_0001_0000300021_0000002_0_0001 (protein)
chain: SSSSSSLTEAFERVKELLEEAAQIEDDEEVRELLEEAEKAAEEVNNEYLLRAIEYLKRILSSSSS
B7: il10ra_site1_sap_24_mot_HHH_b2_04001_000000102_0001_19_36_H_._HHH_b2_02525_af2_0001_0000200010_0000002_0_0001_af2pred_dldesign_0_af2pred (protein)
chain: SSSSSSPLEKEVERLLEEAKKEEDEQKFAELLRKAMKLAYEAKNEELFKKVVDLAAARLESSSSS
B8: il10ra_site1_normal_mot_HHH_b2_06857_af2_000000179_0001_42_54_H_._HHH_b1_03771_af2_0001_0000300018_0000001_0 (protein)
chain: SSSSTEELERLYELLRRIAELHSEGNPEEAKELIEEAEELAERLGNELVRFQLEFLHRQVDSSSS
B9: il10ra_site1_normal_mot_HHH_b2_08186_000000021_0001_43_56_H_._HHH_b1_04390_0001_0000200019_0000001_0 (protein)
chain: SSSSSSSLSELALRALQLAYKIPDPEESEELLQLIWEALKKGDEEELREIVERLEEELSSSSSSS
B10: il10ra_site1_sap_21_mot_HHH_b2_08004_000000101_0001_1_17_H_._HHH_b1_07228_af2_0001_0000200011_0000001_0_0001 (protein)
chain: SSSSDLEEEIERLREELREAEERGDEELALRLLFELIQLAYHTNDEELLRELWEAVKRLFSSSSS
B11: il10ra_site1_sap_15_mot_HHH_b1_01874_000000035_0001_1_20_H_._HHH_b1_07861_0001_0000100004_0000002_0_0001_af2pred_dldesign_0_af2pred (protein)
chain: SSSSSPELEEIEALIKELKALEDPDAVYLAEKLKEAYERTGDPRLLTMARNLLEDARARVESSSS
B12: il10ra_site1_normal_mot_ems_3hM_3349_af2_000000150_0001_25_42_H_._b4be136d7f8a4bb058aae31a77d31857_0001_0001_0000200005_0000001_0 (protein)
chain: SLEELVEELLEELGVPPEEIRLVKLALRQQAEQNGDPEEALEALARALRLMGDPKVVKVLEEVLK
B13: il10ra_site1_sap_14_mot_e0dbc3348a3fcd95f014b317fc0bf3a6_0001_000000040_0001_16_30_H_._75bdb2aef64737852ff07fad4f0fc64e_0001_0001_0000100001_0000001_0_0001 (protein)
chain: SSSSSEEERLIELLEELLHAYVEGDREEAQELVEEATELAEKLGNRAARWSLRAIERALKSSSSS
B14: il10ra_site1_normal_mot_HHH_b2_05323_000000159_0001_1_18_H_._HHH_b1_01966_0001_0000200024_0000001_0 (protein)
chain: SSSSSDNEEALELSLEAFRLLLRGDPEQAREVLEEALELAERAGNERLARIIEDQLRILSSSSSS
B15: il10ra_site1_sap_18_mot_HHH_b2_03827_000000021_0001_1_19_H_._HHH_b1_08445_0001_0000400052_0000002_0_0001 (protein)
chain: SSSSSDVEEEIEELLEEAKRIEDPEQAKEVILRAAALAARLRDPHLSMLVIHVYAELDQRSSSSS
B16: il10ra_site1_normal_mot_HHH_b2_03220_af2_000000223_0001_23_40_H_._HHH_b2_02346_0001_0000100008_0000002_0_af2pred_0001 (protein)
chain: SSSSSSEELEEALKLLREALQIDDPEEARRVAEEAVEILEEAGNEEALRIAELILRNLKSSSSSS
B17: il10ra_site1_sap_16_mot_HHH_b1_06816_000000239_0001_1_19_H_._HHH_b1_03929_0001_0000100004_0000001_1_0001 (protein)
chain: SSSSDESYEHAKRVIRELIRLLEEGDPEEAERLAEEARQFLEEAGNQLAAMTIRYSFERTSSSSS
B18: il10ra_site1_normal_mot_HHH_b2_07579_000000275_0001_1_19_H_._HHH_b2_05024_0001_0000100002_0000003_0 (protein)
chain: SSSSTEEHRELYELLREALELVARGDPEEAREVLEEAIELAQELGNYVFLFAAEHLYRDHSSSSS
B19: il10ra_site1_normal_mot_65b8060e20531850bca9f2e11f97d954_0001_af2_000000137_0001_17_31_H_._HHH_b1_06583_0001_0000200011_0000002_0 (protein)
chain: SSSSSEEERRALELIVRISRLLNRGDKEEAEELLEELEELAEKLNDPRLRQSLQFLEALLNSSSS

molecular target: il10ra, Q13651; assay: yeast display titration

For B1, which “apparent Kd” value is on record?
The value was “inactive: no binding seen”.

For B2, which “apparent Kd” value is on record?
The value was “inactive: no binding seen”.

Which “apparent Kd” value does the source give for B3 here?
The value was “inactive: no binding seen”.

B4 was tested. Which “apparent Kd” value did it give?
The value was “inactive: no binding seen”.

B5 was tested. Which “apparent Kd” value did it give?
The value was “inactive: no binding seen”.

For B6, which “apparent Kd” value is on record?
The value was “inactive: no binding seen”.

With B7 as the binder, how does the “apparent Kd” value read?
The value was “inactive: no binding seen”.

For B8, which “apparent Kd” value is on record?
Its value is “inactive: no binding seen”.

B9 was tested. Which “apparent Kd” value did it give?
The value was “inactive: no binding seen”.

With B10 as the binder, how does the “apparent Kd” value read?
Its value is “inactive: no binding seen”.

Which “apparent Kd” value does the source give for B11 here?
Its value is “inactive: no binding seen”.

With B12 as the binder, how does the “apparent Kd” value read?
The value was “inactive: no binding seen”.

How did the “apparent Kd” value turn out when B13 was run?
Its value is “inactive: no binding seen”.

With B14 as the binder, how does the apparent Kd read?
Its apparent Kd is inactive: > 4.72 nM.

B15 was tested. Which “apparent Kd” value did it give?
The value was “inactive: no binding seen”.

B16 was tested. Which “apparent Kd” value did it give?
Its value is “inactive: no binding seen”.

With B17 as the binder, how does the “apparent Kd” value read?
Its value is “inactive: no binding seen”.

With B18 as the binder, how does the “apparent Kd” value read?
Its value is “inactive: no binding seen”.

Which “apparent Kd” value does the source give for B19 here?
Its value is “inactive: no binding seen”.
